Results published in US20130330343A1 (AbbVie / Abbott, published 2013).
Results are given in words; binding and its absence hold for the method and conditions named. Some results given as binding are weak or reduced against the parent protein; the word gives no strength. For part of these data: Sequences can lack the tags named with a protein.

What was measured:
human RGMc = target: T1, human RGMc (human, UniProt Q6ZVN8 36-400, limits assumed); experiment: human RGMc direct ELISA
T1 construct: also called hRGMc
T1 sequence: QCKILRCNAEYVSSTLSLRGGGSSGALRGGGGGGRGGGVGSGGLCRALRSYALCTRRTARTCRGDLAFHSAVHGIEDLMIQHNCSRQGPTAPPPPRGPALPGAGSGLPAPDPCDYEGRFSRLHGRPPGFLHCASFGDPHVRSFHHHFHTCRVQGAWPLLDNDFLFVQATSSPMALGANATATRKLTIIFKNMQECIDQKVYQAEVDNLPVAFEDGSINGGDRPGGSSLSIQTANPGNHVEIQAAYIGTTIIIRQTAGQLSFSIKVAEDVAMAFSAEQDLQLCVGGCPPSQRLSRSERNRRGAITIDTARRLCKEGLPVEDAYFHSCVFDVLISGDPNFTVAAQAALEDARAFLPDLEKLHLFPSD

R&D hRGMc-His = target: T2, R&D hRGMc-His (human, UniProt Q6ZVN8 36-400); experiment: R&D hRGMc-His ELISA
T2 construct: Bought (R&D); not shown: His tag
T2 sequence: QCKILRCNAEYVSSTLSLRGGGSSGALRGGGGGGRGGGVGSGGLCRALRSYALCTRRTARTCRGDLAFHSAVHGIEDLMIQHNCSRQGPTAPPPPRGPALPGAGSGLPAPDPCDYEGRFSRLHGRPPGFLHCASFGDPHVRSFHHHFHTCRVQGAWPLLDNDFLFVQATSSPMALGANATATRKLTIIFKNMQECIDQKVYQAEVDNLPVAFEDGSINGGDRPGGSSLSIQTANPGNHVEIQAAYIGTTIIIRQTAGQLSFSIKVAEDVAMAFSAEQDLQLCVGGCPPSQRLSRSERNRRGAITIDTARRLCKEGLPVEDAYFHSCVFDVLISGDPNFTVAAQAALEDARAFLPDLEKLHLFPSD

human RGMa [1] = target: T3, human RGMa (human, UniProt Q96B86 48-422, limits assumed); experiment: hRGMa indirect ELISA; Ab captured by anti-human Fc, biotin hRGMa titrated
T3 construct: also called hRGMa; h RGMa
T3 sequence (looked up): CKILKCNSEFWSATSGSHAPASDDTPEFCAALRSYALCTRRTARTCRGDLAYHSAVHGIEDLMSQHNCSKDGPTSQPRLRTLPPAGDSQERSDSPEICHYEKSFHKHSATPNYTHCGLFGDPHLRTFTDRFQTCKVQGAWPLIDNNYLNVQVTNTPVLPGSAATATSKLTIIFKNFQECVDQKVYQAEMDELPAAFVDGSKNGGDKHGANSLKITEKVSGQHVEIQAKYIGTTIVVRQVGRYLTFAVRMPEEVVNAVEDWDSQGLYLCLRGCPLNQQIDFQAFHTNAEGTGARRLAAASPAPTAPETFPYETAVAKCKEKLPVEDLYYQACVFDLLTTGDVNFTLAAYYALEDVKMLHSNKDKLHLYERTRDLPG

human RGMa [2] = target: T3, human RGMa; experiment: hRGMa binding (ELISA)

Measured: binding

B1: RGMA-h5F9pJP297/pJP298 hIgG1/K mut (antibody, V domains shown)
VH: EVQLVESGGGLVQPGGSLRLSCAASGFTFSNYGMNWIRQAPGKGLEWIGMIYYDSSEKHYADSVKGRFTISRDNSKNTLYLQMNSLRAEDTAVYYCAKGTTPDYWGQGTMVTVSS
VL: DVVLTQSPLSLPVTLGQPASISCRSSQSLEESDGYTFLHWFQQRPGQSPRLLIYEVSTRFSGVPDRFSGSGSGTDFTLKISRVEAEDVGVYYCFQATHDPLTFGQGTKLEIK
notes: Tested as IgG; also called h5F9.AM8; H5F9AM.8
binds: human RGMc | R&D hRGMc-His

B2: RGMA-h5F9pJP297/pJP299 hIgG1/K mut (antibody, V domains shown)
VH: EVQLVESGGGVVQPGRSLRLSCAASGFTFSNYGMNWVRQAPGKGLEWVAMIYYDSSEKHYADSVKGRFTISRDNSKNTLYLQMNSLRAEDTAVYYCARGTTPDYWGQGTMVTVSS
VL: DVVLTQSPLSLPVTLGQPASISCRSSQSLADSDGDTFLHWFQQRPGQSPRLLIYAVSHRFSGVPDRFSGSGSGTDFTLKISRVEAEDVGVYYCFQATHDPVTFGQGTKLEIK
notes: Tested as IgG; also called h5F9.AM9; H5F9AM.9
binds: human RGMa [1] | human RGMc | human RGMa [2] | R&D hRGMc-His
